Some of these results come from one statement about several compounds together.
Test system: U87MG tumor cells
Test: In vivo efficacy study (tumor growth suppression), U87MG xenograft
Details: U87MG xenograft mice, after 12 to 14 days of dosing, 50 mg/kg qd po

Row | SMILES | tumor growth inhibition relative to vehicle control group
1 | Nc1ncc(-c2nc(N3CCOCC3)c3ncc(-c4cccc(NC(=O)C5CC5)c4)cc3n2)cn1 [Example 7, N-(3-(2-(2-Aminopyrimidin-5-yl)-4-morpholinopyrido[3,2-d]pyrimidin-7-yl)-phenyl)cyclopropanecarboxamide] | more than 80%
2 | CC(=O)Nc1cccc(-c2cnc3c(N4CCOCC4)nc(-c4cnc(N)nc4)nc3c2)c1 [Example 3, N-(3-(2-(2-Aminopyrimidin-5-yl)-4-morpholinopyrido[3,2-d]pyrimidin-7-yl)-phenyl)acetamide] | more than 80%
3 | CC(=O)Nc1cc(-c2cnc3c(N4CCOCC4)nc(-c4cnc(N)nc4)nc3c2)ccc1F [Example 119, N-(5-(2-(2-amino-pyrimidin-5-yl)-4-morpholinopyrido[3,2-d]-pyrimidin-7-yl)-2-fluorophenyl)acetamide] | more than 80%
4 | CC(C)C(=O)Nc1cccc(-c2cnc3c(N4CCOCC4)nc(-c4cnc(N)nc4)nc3c2)c1 [Example 105, N-(3-(2-(2-amino-pyrimidin-5-yl)-4-morpholinopyrido[3,2-d]-pyrimidin-7-yl)-phenyl)isobutyramide] | more than 80%
5 | N#CC1(C(=O)Nc2cccc(-c3cnc4c(N5CCOCC5)nc(-c5cnc(N)nc5)nc4c3)c2)CC1 [Example 61, N-(3-(2-(2-amino-pyrimidin-5-yl)-4-morpholinopyrido[3,2-d]pyrimidin-7-yl)phenyl)-1-cyanocyclopropane-carboxamide] | more than 80%
